# Measured values published in the supplement of paper PMC11438910.
# This is one part of the list. Only a few entries rise above the background.
# Tests used:
# Assay in all cases: fluorescence intensity of antibody binding to polysaccharide-coupled beads; higher = stronger binding
# [1] = target: pneumococcal polysaccharide Pn47A
# Experimental: (§1)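 Recombinant rhesus-murine chimeric IgG1 antibodies were tested against antigen-coupled MagPlex beads in a 96-plex Luminex direct immunoassay (dLIA). The beads carried pneumococcal capsular polysaccharides of 93 serotypes plus C-polysaccharides. Antibody was added at 0.1–12,500 ng/mL for 1 h, then PE anti-mouse IgG, and net MFI was read on a Bio-Plex 3D. Only the rhesus variable regions are printed; constant regions are murine IgG1/kappa/lambda, and the signal peptide is MGWSCIILFLVATATGVHS.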
# [2] = target: pneumococcal polysaccharide Pn47F
# Experimental: as §1
# [3] = target: pneumococcal polysaccharide Pn48
# Experimental: as §1
# [4] = target: pneumococcal polysaccharide Pn5
# Experimental: as §1
# [5] = target: pneumococcal polysaccharide Pn6A
# Experimental: as §1
# [6] = target: pneumococcal polysaccharide Pn6B
# Experimental: as §1
# [7] = target: pneumococcal polysaccharide Pn6C
# Experimental: as §1
# [8] = target: pneumococcal polysaccharide Pn6D
# Experimental: as §1
# [9] = target: pneumococcal polysaccharide Pn7A
# Experimental: as §1
# [10] = target: pneumococcal polysaccharide Pn7B
# Experimental: as §1
# [11] = target: pneumococcal polysaccharide Pn7C
# Experimental: as §1
# [12] = target: pneumococcal polysaccharide Pn7F
# Experimental: as §1
# [13] = target: pneumococcal polysaccharide Pn8
# Experimental: as §1
# [14] = target: pneumococcal polysaccharide Pn9A
# Experimental: as §1
# [15] = target: pneumococcal polysaccharide Pn9L
# Experimental: as §1
# [16] = target: pneumococcal polysaccharide Pn9N
# Experimental: as §1
# [17] = target: pneumococcal polysaccharide Pn9V
# Experimental: as §1
# [18] = target: pneumococcal polysaccharide C-Poly-1
# Experimental: as §1
# [19] = target: pneumococcal polysaccharide C-Poly-2
# Experimental: as §1
# [20] = target: pneumococcal polysaccharide Pn1
# Experimental: as §1
# [21] = target: pneumococcal polysaccharide Pn10A
# Experimental: as §1
# [22] = antibody concentration 2337.65 ng/mL
# [23] = antibody concentration 12500 ng/mL
# [24] = antibody concentration 0.1 ng/mL
# [25] = antibody concentration 0.534724 ng/mL
# [26] = antibody concentration 2.8593 ng/mL
# [27] = antibody concentration 15.2894 ng/mL
# [28] = antibody concentration 81.7561 ng/mL
# [29] = antibody concentration 437.17 ng/mL
binder,measurement,setting,value
4-99.5 (protein) chain 1: QVQLQESGPGLVKPSETLSLTCAVSGYSISSGYYWGWIRQPPGKGLEYIGYISGSSGSPYYNPSLKSRVTISKDTSKNQFSLKLSSATAADTAVYYCARRQVGIGFDYWGQGVLVTVSS chain 2: QAAPTQPPSVSGSPGQSVTISCTGTSSDIGYYNAVSWYQQHPGKAPKLMIYEVSKRPSGVSDRFSGSKSGNTASLTISGLQAEDEADYYCSSYAGSNTYIFGAGTRLTVL,fluorescence intensity,[1]; [22],17.2 MFI
same,fluorescence intensity,[1]; [23],19.5 MFI
same,fluorescence intensity,[2]; [24],12.5 MFI
same,fluorescence intensity,[2]; [25],12.2 MFI
same,fluorescence intensity,[2]; [26],12.5 MFI
same,fluorescence intensity,[2]; [27],12.5 MFI
same,fluorescence intensity,[2]; [28],12.5 MFI
same,fluorescence intensity,[2]; [29],12 MFI
same,fluorescence intensity,[2]; [22],13 MFI
same,fluorescence intensity,[2]; [23],23.5 MFI
same,fluorescence intensity,[3]; [24],22.5 MFI
same,fluorescence intensity,[3]; [25],21 MFI
same,fluorescence intensity,[3]; [26],22.5 MFI
same,fluorescence intensity,[3]; [27],20.5 MFI
same,fluorescence intensity,[3]; [28],21.5 MFI
same,fluorescence intensity,[3]; [29],23 MFI
same,fluorescence intensity,[3]; [22],26.2 MFI
same,fluorescence intensity,[3]; [23],31.8 MFI
same,fluorescence intensity,[4]; [24],8 MFI
same,fluorescence intensity,[4]; [25],9 MFI
same,fluorescence intensity,[4]; [26],9 MFI
same,fluorescence intensity,[4]; [27],9.5 MFI
same,fluorescence intensity,[4]; [28],9.25 MFI
same,fluorescence intensity,[4]; [29],8.5 MFI
same,fluorescence intensity,[4]; [22],11 MFI
same,fluorescence intensity,[4]; [23],23 MFI
same,fluorescence intensity,[5]; [24],21 MFI
same,fluorescence intensity,[5]; [25],22.5 MFI
same,fluorescence intensity,[5]; [26],22.2 MFI
same,fluorescence intensity,[5]; [27],21.2 MFI
same,fluorescence intensity,[5]; [28],22 MFI
same,fluorescence intensity,[5]; [29],25.5 MFI
same,fluorescence intensity,[5]; [22],24.5 MFI
same,fluorescence intensity,[5]; [23],31.2 MFI
same,fluorescence intensity,[6]; [24],19 MFI
same,fluorescence intensity,[6]; [25],20 MFI
same,fluorescence intensity,[6]; [26],20.8 MFI
same,fluorescence intensity,[6]; [27],20 MFI
same,fluorescence intensity,[6]; [28],20 MFI
same,fluorescence intensity,[6]; [29],21.5 MFI
same,fluorescence intensity,[6]; [22],20 MFI
same,fluorescence intensity,[6]; [23],27.2 MFI
same,fluorescence intensity,[7]; [24],21.5 MFI
same,fluorescence intensity,[7]; [25],23.5 MFI
same,fluorescence intensity,[7]; [26],32 MFI
same,fluorescence intensity,[7]; [27],54.2 MFI
same,fluorescence intensity,[7]; [28],59 MFI
same,fluorescence intensity,[7]; [29],48.5 MFI
same,fluorescence intensity,[7]; [22],63.2 MFI
same,fluorescence intensity,[7]; [23],94.8 MFI
same,fluorescence intensity,[8]; [24],20 MFI
same,fluorescence intensity,[8]; [25],19 MFI
same,fluorescence intensity,[8]; [26],18 MFI
same,fluorescence intensity,[8]; [27],17.5 MFI
same,fluorescence intensity,[8]; [28],17.5 MFI
same,fluorescence intensity,[8]; [29],20 MFI
same,fluorescence intensity,[8]; [22],20.2 MFI
same,fluorescence intensity,[8]; [23],25 MFI
same,fluorescence intensity,[9]; [24],20.5 MFI
same,fluorescence intensity,[9]; [25],21.2 MFI
same,fluorescence intensity,[9]; [26],21.2 MFI
same,fluorescence intensity,[9]; [27],20.5 MFI
same,fluorescence intensity,[9]; [28],20.5 MFI
same,fluorescence intensity,[9]; [29],21.5 MFI
same,fluorescence intensity,[9]; [22],28.5 MFI
same,fluorescence intensity,[9]; [23],107 MFI
same,fluorescence intensity,[10]; [24],18 MFI
same,fluorescence intensity,[10]; [25],16.2 MFI
same,fluorescence intensity,[10]; [26],18 MFI
same,fluorescence intensity,[10]; [27],16 MFI
same,fluorescence intensity,[10]; [28],17 MFI
same,fluorescence intensity,[10]; [29],17.5 MFI
same,fluorescence intensity,[10]; [22],19 MFI
same,fluorescence intensity,[10]; [23],30.8 MFI
same,fluorescence intensity,[11]; [24],17 MFI
same,fluorescence intensity,[11]; [25],16.5 MFI
same,fluorescence intensity,[11]; [26],15.5 MFI
same,fluorescence intensity,[11]; [27],17 MFI
same,fluorescence intensity,[11]; [28],15.2 MFI
same,fluorescence intensity,[11]; [29],16.5 MFI
same,fluorescence intensity,[11]; [22],16.5 MFI
same,fluorescence intensity,[11]; [23],27 MFI
same,fluorescence intensity,[12]; [24],15.5 MFI
same,fluorescence intensity,[12]; [25],15.5 MFI
same,fluorescence intensity,[12]; [26],16 MFI
same,fluorescence intensity,[12]; [27],15.8 MFI
same,fluorescence intensity,[12]; [28],16 MFI
same,fluorescence intensity,[12]; [29],17.5 MFI
same,fluorescence intensity,[12]; [22],20 MFI
same,fluorescence intensity,[12]; [23],45 MFI
same,fluorescence intensity,[13]; [24],22.8 MFI
same,fluorescence intensity,[13]; [25],22.5 MFI
same,fluorescence intensity,[13]; [26],22.5 MFI
same,fluorescence intensity,[13]; [27],20.5 MFI
same,fluorescence intensity,[13]; [28],21.5 MFI
same,fluorescence intensity,[13]; [29],23 MFI
same,fluorescence intensity,[13]; [22],26 MFI
same,fluorescence intensity,[13]; [23],35.5 MFI
same,fluorescence intensity,[14]; [24],19.5 MFI
same,fluorescence intensity,[14]; [25],20 MFI
same,fluorescence intensity,[14]; [26],18.8 MFI
same,fluorescence intensity,[14]; [27],17.8 MFI
same,fluorescence intensity,[14]; [28],20.5 MFI
same,fluorescence intensity,[14]; [29],20 MFI
same,fluorescence intensity,[14]; [22],21.2 MFI
same,fluorescence intensity,[14]; [23],37.5 MFI
same,fluorescence intensity,[15]; [24],19.5 MFI
same,fluorescence intensity,[15]; [25],18 MFI
same,fluorescence intensity,[15]; [26],17 MFI
same,fluorescence intensity,[15]; [27],16.5 MFI
same,fluorescence intensity,[15]; [28],17.5 MFI
same,fluorescence intensity,[15]; [29],19.5 MFI
same,fluorescence intensity,[15]; [22],20.5 MFI
same,fluorescence intensity,[15]; [23],27.8 MFI
same,fluorescence intensity,[16]; [24],16 MFI
same,fluorescence intensity,[16]; [25],16.5 MFI
same,fluorescence intensity,[16]; [26],16.2 MFI
same,fluorescence intensity,[16]; [27],15 MFI
same,fluorescence intensity,[16]; [28],17 MFI
same,fluorescence intensity,[16]; [29],15.5 MFI
same,fluorescence intensity,[16]; [22],18.5 MFI
same,fluorescence intensity,[16]; [23],29.5 MFI
same,fluorescence intensity,[17]; [24],14.8 MFI
same,fluorescence intensity,[17]; [25],15.5 MFI
same,fluorescence intensity,[17]; [26],15 MFI
same,fluorescence intensity,[17]; [27],16 MFI
same,fluorescence intensity,[17]; [28],15 MFI
same,fluorescence intensity,[17]; [29],16.5 MFI
same,fluorescence intensity,[17]; [22],15.5 MFI
same,fluorescence intensity,[17]; [23],20 MFI
4-80.2 (protein) chain 1: QVQLQESGPGLVKPSETLSLTCAVSGDSFSSYWWSWIRQPPGKGLEWIGEINGNVGSTNYNPSLKSRVTISKDASKNQFSLKLSSVTAADTAVYYCARYKEYWGQGVLVTVSS chain 2: DVVMTQSPLSLPITPGQPASISCRSSQSLVHSNGNTYLSWYQQKPGQPPRRLIYEVSNRDSGVPDRFSGSGAGTDFTLKISRVEAEDVGVYYCGQGTHLPYSFGQGTKVEIK,fluorescence intensity,[18]; [24],28 MFI
same,fluorescence intensity,[18]; [25],26.5 MFI
same,fluorescence intensity,[18]; [26],30 MFI
same,fluorescence intensity,[18]; [27],25.5 MFI
same,fluorescence intensity,[18]; [28],25.8 MFI
same,fluorescence intensity,[18]; [29],27.2 MFI
same,fluorescence intensity,[18]; [22],29.2 MFI
same,fluorescence intensity,[18]; [23],58 MFI
same,fluorescence intensity,[19]; [24],23.5 MFI
same,fluorescence intensity,[19]; [25],22.5 MFI
same,fluorescence intensity,[19]; [26],21.8 MFI
same,fluorescence intensity,[19]; [27],21 MFI
same,fluorescence intensity,[19]; [28],21 MFI
same,fluorescence intensity,[19]; [29],22.2 MFI
same,fluorescence intensity,[19]; [22],25.8 MFI
same,fluorescence intensity,[19]; [23],51 MFI
same,fluorescence intensity,[20]; [24],14.5 MFI
same,fluorescence intensity,[20]; [25],14.2 MFI
same,fluorescence intensity,[20]; [26],13.5 MFI
same,fluorescence intensity,[20]; [27],13.5 MFI
same,fluorescence intensity,[20]; [28],13.5 MFI
same,fluorescence intensity,[20]; [29],15 MFI
same,fluorescence intensity,[20]; [22],16.5 MFI
same,fluorescence intensity,[20]; [23],26 MFI
same,fluorescence intensity,[21]; [24],27.5 MFI
same,fluorescence intensity,[21]; [25],26.5 MFI
same,fluorescence intensity,[21]; [26],27.5 MFI
same,fluorescence intensity,[21]; [27],27 MFI
same,fluorescence intensity,[21]; [28],27.5 MFI
same,fluorescence intensity,[21]; [29],27 MFI

# Part of the list above in a different format:
binder	measurement	setting	value
4-99.5 (protein) chain 1: QVQLQESGPGLVKPSETLSLTCAVSGYSISSGYYWGWIRQPPGKGLEYIGYISGSSGSPYYNPSLKSRVTISKDTSKNQFSLKLSSATAADTAVYYCARRQVGIGFDYWGQGVLVTVSS chain 2: QAAPTQPPSVSGSPGQSVTISCTGTSSDIGYYNAVSWYQQHPGKAPKLMIYEVSKRPSGVSDRFSGSKSGNTASLTISGLQAEDEADYYCSSYAGSNTYIFGAGTRLTVL	fluorescence intensity	[8]; [29]	20 MFI
same	fluorescence intensity	[8]; [22]	20.2 MFI
same	fluorescence intensity	[8]; [23]	25 MFI

# Quoted at random: six records from the list, in no set order.
binder,measurement,setting,value
4-99.5 (protein) chain 1: QVQLQESGPGLVKPSETLSLTCAVSGYSISSGYYWGWIRQPPGKGLEYIGYISGSSGSPYYNPSLKSRVTISKDTSKNQFSLKLSSATAADTAVYYCARRQVGIGFDYWGQGVLVTVSS chain 2: QAAPTQPPSVSGSPGQSVTISCTGTSSDIGYYNAVSWYQQHPGKAPKLMIYEVSKRPSGVSDRFSGSKSGNTASLTISGLQAEDEADYYCSSYAGSNTYIFGAGTRLTVL,fluorescence intensity,[2]; [27],12.5 MFI
same,fluorescence intensity,[1]; [22],17.2 MFI
same,fluorescence intensity,[3]; [29],23 MFI
same,fluorescence intensity,[5]; [29],25.5 MFI
same,fluorescence intensity,[6]; [24],19 MFI
same,fluorescence intensity,[7]; [26],32 MFI
